{"source": "patent US20250041272A1", "about": "“COMPOSITIONS AND METHODS FOR TREATING CANCER VIA PTP1B INHIBITION” (priority 2021, published 2025)", "system": "GEMM6 tumors", "assay": "GEMM6 melanoma tumor model", "assay_type": "in vivo", "details": "larger tumors (200 mm^3); BVT948 10 mg/kg or Vemurafenib 30 mg/kg intraperitoneal", "protocol": "Tumor implantation, treatment and harvest. For animal studies, 1*10^5 B16F10 luciferase-tagged melanoma cells, 1*10^6 GEMM6 melanoma cells or 2*10^6 LCC cells were implanted subcutaneously into C57BL/6J mice (randomized, both males and females, 000664 The Jackson laboratory). When indicated, mice received intraperitoneal injections 7 days after implantation with 100 μl of 5 mg/kg cisplatin (Tocris), 100 μl of 10 mg/kg BVT948 (Tocris) or 100 μl of 30 mg/kg of vemurafenib. […]\nImmunohistochemistry analysis. Immunohistochemistry assay was carried out in formalin-fixed, paraffin-embedded 4 μm sections using primary antibodies against F4:80 (AbD Serotec), CD11b (Abcam), CD4 (eBioscience) or CD8a (eBioscience) on a Discovery Ultra Automated IHC staining system (Ventana). Sections were then imaged using a ScanScope XT microscope (Aperio) and quantified using Aperio software.", "note": "For at least one compound, name, drawing or mass did not settle the structure.", "data": [{"compound": "CCCS(=O)(=O)Nc1ccc(F)c(C(=O)c2c[nH]c3ncc(-c4ccc(Cl)cc4)cc23)c1F", "note": "[Vemurafenib]", "values": [{"measurement": "GEMM6 tumor growth, monotherapy vs vehicle", "result": "did not significantly reduce"}]}]}
